# Cleaved PARP after 72 h of treatment

Data from the primary screen of doi:10.1371/journal.pone.0140310, rounded.

Drugs:
sunitinib: CCN(CC)CCNC(=O)c1c(C)[nH]c(/C=C2\C(=O)Nc3ccc(F)cc32)c1C at 2000 nM
SNS-314: O=C(Nc1cccc(Cl)c1)Nc1ncc(CCNc2ncnc3ccsc23)s1 at 4 nM
pazopanib: Cc1ccc(Nc2nccc(N(C)c3ccc4c(C)n(C)nc4c3)n2)cc1S(N)(=O)=O at 2000 nM
PD173074: CCN(CC)CCCCNc1ncc2cc(-c3cc(OC)cc(OC)c3)c(NC(=O)NC(C)(C)C)nc2n1 at 500 nM
GW2580: COc1ccc(COc2ccc(Cc3cnc(N)nc3N)cc2OC)cc1 at 5000 nM
vismodegib: CS(=O)(=O)c1ccc(C(=O)Nc2ccc(Cl)c(-c3ccccn3)c2)c(Cl)c1 at 5000 nM
KU-55933: O=c1cc(-c2cccc3c2Sc2ccccc2S3)oc(N2CCOCC2)c1 at 5000 nM
ZM336372: Cc1ccc(NC(=O)c2cccc(N(C)C)c2)cc1NC(=O)c1ccc(O)cc1 at 10000 nM
KU-0063794: COc1ccc(-c2ccc3c(N4CCOCC4)nc(N4C[C@@H](C)O[C@@H](C)C4)nc3n2)cc1CO at 100 nM
dovitinib: CN1CCN(c2ccc3nc(-c4c(N)c5c(F)cccc5[nH]c4=O)[nH]c3c2)CC1 at 500 nM

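Human melanoma cell lines in 1,536-well plates were treated with two drugs together for 72 h, then fixed, stained and imaged. The read-out is the fraction of cleaved-PARP-positive nuclei, in % of that fraction in the DMSO control; 200 means twice the control level of this apoptosis marker. Every drug was used at one fixed concentration, the higher of two screened. No replicate spread is given; individual values may be noisy. Basal and induced levels differ widely between cell lines.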
This is part of the screen, not chosen by result.
A dash means that no value is listed here.

Drugs	C32	COLO 829	WM1745	UACC-257	IPC-298	501mel	SK-MEL-30
dovitinib and vismodegib	62.1	110	360	96.8	185	-	149
vismodegib and GW2580	73.0	61.4	-	122	86.7	136	118
dovitinib and KU-55933	113	115	-	125	130	43.0	87.9
dovitinib and PD173074	155	120	-	29.6	161	87.1	172
KU-0063794 and GW2580	282	304	93.4	48.0	28.1	49.7	111
ZM336372 and KU-0063794	96.9	145	163	25.4	47.9	356	51.3
KU-55933 and PD173074	97.0	203	116	34.3	26.2	46.7	79.0
sunitinib and pazopanib	90.0	62.6	130	179	127	-	105
vismodegib and ZM336372	51.0	74.5	79.1	131	31.7	-	28.4
KU-55933 and sunitinib	209	62.8	-	31.8	124	189	209
dovitinib and SNS-314	161	120	138	78.8	386	-	42.5
GW2580 and SNS-314	121	85.2	115	78.9	307	123	127
KU-55933 and pazopanib	90.9	103	-	38.5	64.6	60.3	83.3
ZM336372 and sunitinib	101	119	218	106	122	-	103
PD173074 and pazopanib	72.9	58.0	-	64.6	56.4	230	87.8
KU-55933 and SNS-314	124	45.1	169	24.8	47.2	115	111
GW2580 and ZM336372	86.3	62.1	99.0	33.1	100	146	72.7
KU-55933 and GW2580	88.7	107	161	103	61.2	287	77.6
sunitinib and GW2580	94.0	153	-	33.3	125	365	460
GW2580 and PD173074	75.9	143	96.5	93.7	78.9	117	51.5
PD173074 and vismodegib	71.4	54.6	-	46.7	56.0	32.4	100
vismodegib and SNS-314	84.6	104	80.8	79.8	73.7	-	91.3
KU-0063794 and PD173074	276	199	116	41.8	77.1	92.6	83.4
SNS-314 and ZM336372	546	124	94.2	90.8	383	-	57.1
KU-0063794 and pazopanib	159	131	-	87.9	93.2	134	112
GW2580 and dovitinib	272	199	-	85.5	69.0	98.0	123
SNS-314 and PD173074	117	127	167	49.0	70.0	77.8	95.9
KU-0063794 and sunitinib	90.3	75.7	-	99.2	82.6	388	135
PD173074 and sunitinib	100	49.0	-	59.8	184	984	291
KU-0063794 and SNS-314	104	195	129	53.0	75.4	60.9	96.2
sunitinib and SNS-314	120	99.9	205	124	157	-	143
KU-0063794 and KU-55933	207	201	114	45.7	27.1	96.7	112
KU-0063794 and vismodegib	68.9	151	-	23.7	110	95.3	115
dovitinib and ZM336372	122	192	137	200	272	-	106
ZM336372 and pazopanib	169	98.1	113	119	222	-	51.5
GW2580 and pazopanib	86.0	77.2	-	81.0	140	98.5	150

Once more, the final 4:

| Drugs | C32 | COLO 829 | WM1745 | UACC-257 | IPC-298 | 501mel | SK-MEL-30 |
|---|---|---|---|---|---|---|---|
| KU-0063794 and vismodegib | 68.9 | 151 | - | 23.7 | 110 | 95.3 | 115 |
| dovitinib and ZM336372 | 122 | 192 | 137 | 200 | 272 | - | 106 |
| ZM336372 and pazopanib | 169 | 98.1 | 113 | 119 | 222 | - | 51.5 |
| GW2580 and pazopanib | 86.0 | 77.2 | - | 81.0 | 140 | 98.5 | 150 |